These are yes or no findings as the source states them, for the method shown. Binding seen in cells or lysates may run through a third protein. Some results given as binding are weak or reduced against the parent protein; the word gives no strength.
Tests used:
[1] = molecular target: α7 subunit of the 20S proteasome, endogenous in ECV304 cells (human) (UniProt P25788); test: co-immunoprecipitation from ECV304 transfectants
[2] = molecular target: α7 subunit of the 20S proteasome, endogenous in ECV304 cells (human) (UniProt P25788); test: co-immunoprecipitation with anti-PR-39 antibody, Western blot with anti-α7 mAb

Chains of the proteins cited; added tags and fusions are not shown. Residues count along the entry.
UniProt P25788, residues 2-255: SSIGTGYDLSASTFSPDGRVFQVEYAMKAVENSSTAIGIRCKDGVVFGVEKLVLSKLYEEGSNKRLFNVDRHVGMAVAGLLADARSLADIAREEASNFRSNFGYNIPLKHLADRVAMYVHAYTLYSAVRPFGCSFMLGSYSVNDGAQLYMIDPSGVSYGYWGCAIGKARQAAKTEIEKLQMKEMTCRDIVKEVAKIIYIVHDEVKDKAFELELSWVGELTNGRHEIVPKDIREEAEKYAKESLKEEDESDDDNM

binding [1]: binds
binding [2]: binds
B1: porcine PR-39 peptide (4th exon, amino acids 131 to 169) in pAS2-1 vector as yeast two-hybrid bait (peptide, not shown: large carriers)
chain: RRRPRPPYLPRPRPPPFFPPRLPPRIPPGFPPRFPPRFP
notes: Bait of the yeast two-hybrid assay; The 39 residues are amino acids 131 to 169 of the porcine precursor; also called PR-39 construct
